# Data source: PubChem BioAssay AID743456 (Peter MacCallum Cancer Centre, 2014)
# Aim: 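miRNA mimics altering how resistant colon cancer cells respond to vorinostat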 (primary screen)
# System: human HCT116-VR colon cancer cells, a vorinostat-resistant HCT116 line
# Reagent: miRNA mimic
# Duration: about 3 days from transfection to readout; drug present for the last 24 h
# Challenge: vorinostat at 2.5 µM final for 24 h
# Detection: 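Per-well live-cell protease fluorescence and caspase luminescence under 2.5 µM vorinostat for 24 h, scored as robust z-scores and against mock transfection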
# Scale: viability robust z-score and viability vs mock transfection: higher = more viable cells; caspase robust z-score: higher = more caspase activity, more apoptosis
# Rule for the call: 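Active when viability drops or caspase activity climbs beyond robust z thresholds, with wells of poor cell health excluded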
# The deposit covers 878 reagents; shown is a part drawn at random. Of all reagents, 27 (3.1%) were called active. 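27 mimics are marked active, unlike an earlier stated count of 24; the viability threshold is described inconsistently.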 Not stated in the record: the amount of reagent.
miRNA,viability robust z-score,caspase robust z-score,viability hit class,caspase hit class,viability vs mock transfection,outcome
hsa-miR-628-5p,-0.34,1.23,no change,no change,0.74,inactive
hsa-miR-382,1.11,0.72,no change,no change,0.98,inactive
hsa-miR-520a-3p,-0.11,2,no change,no change,0.77,inactive
hsa-miR-1294,-2.02,1.5,no change,no change,0.38,inactive
hsa-miR-612,0.09,-0.47,no change,no change,0.77,inactive
hsa-miR-21,1.3,-0.1,no change,no change,1.01,inactive
hsa-miR-362-5p,-0.34,0.24,no change,no change,0.68,inactive
hsa-miR-767-5p,0.16,-0.82,no change,no change,0.77,inactive
hsa-miR-566,1.03,-0.53,no change,no change,0.94,inactive
hsa-miR-187,1.04,0.82,no change,no change,0.96,inactive
hsa-miR-518a-5p,0.01,1.57,no change,no change,0.79,inactive
hsa-miR-1256,-0.22,2.37,no change,no change,0.76,inactive
hsa-miR-1915*,-0.07,1.74,no change,no change,0.74,inactive
hsa-miR-518a-3p,-1.16,-0.47,no change,no change,0.6,inactive
hsa-miR-26b*,-0.33,1.18,no change,no change,0.69,inactive
hsa-miR-1272,-2.15,-0.96,no change,no change,0.46,inactive
hsa-miR-512-5p,-0.86,2,no change,no change,0.66,inactive
hsa-miR-33b,-0.16,-0.48,no change,no change,0.76,inactive
hsa-miR-346,0.02,0.72,no change,no change,0.76,inactive
hsa-miR-106b*,-0.13,0.66,no change,no change,0.77,inactive
hsa-miR-629*,-1.76,-1.29,no change,no change,0.5,inactive
hsa-miR-216a,1.07,-0.57,no change,no change,0.96,inactive
hsa-miR-511,0.3,0.95,no change,no change,0.84,inactive
hsa-miR-1234,0.44,-0.68,no change,no change,0.87,inactive
hsa-miR-302c,0.78,1.86,no change,no change,0.92,inactive
hsa-miR-29b-1*,0.41,0.74,no change,no change,0.82,inactive
hsa-miR-1286,-1.7,5.69,no change,caspase activation,0.5,active
hsa-miR-154,-1.36,2.75,no change,no change,0.56,inactive
hsa-miR-23a*,1.17,-0.5,no change,no change,0.98,inactive
hsa-let-7e*,-3.35,1.25,reduced viability,no change,0.23,active
hsa-miR-31*,-0.71,0.16,no change,no change,0.68,inactive
hsa-miR-572,1.25,-0.29,no change,no change,0.98,inactive
hsa-miR-218,1.88,-0.43,no change,no change,1.1,inactive
hsa-miR-367,1.1,-0.15,no change,no change,0.98,inactive
hsa-miR-151-5p,-0.43,-0.62,no change,no change,0.72,inactive
hsa-miR-10a,-0.45,-1.04,no change,no change,0.72,inactive
hsa-miR-491-3p,-2.84,-0.55,no change,no change,0.36,inactive
hsa-miR-183*,-0.5,0.5,no change,no change,0.72,inactive
hsa-miR-126*,0.96,-0.57,no change,no change,0.95,inactive
hsa-miR-518d-3p,0.4,-0.1,no change,no change,0.86,inactive
hsa-miR-573,-0.18,0.69,no change,no change,0.77,inactive
hsa-miR-487b,-1.48,-0.82,no change,no change,0.54,inactive
hsa-miR-628-3p,0.56,-0.66,no change,no change,0.85,inactive
hsa-miR-1261,-2.67,-1.06,no change,no change,0.4,inactive
hsa-miR-617,-1.11,0.45,no change,no change,0.55,inactive
hsa-miR-214,-0.26,1.19,no change,no change,0.76,inactive
hsa-miR-122*,0.9,-0.54,no change,no change,0.92,inactive
hsa-miR-532-5p,-1.49,-0.37,no change,no change,0.54,inactive
hsa-miR-877*,0.06,0.11,no change,no change,0.76,inactive
hsa-miR-23a,0.66,-0.81,no change,no change,0.9,inactive
hsa-miR-609,-0.97,1.19,no change,no change,0.57,inactive
hsa-miR-595,1.02,0.31,no change,no change,0.96,inactive
hsa-miR-933,0.69,1.17,no change,no change,0.9,inactive
hsa-miR-940,-0.88,-0.04,no change,no change,0.59,inactive
hsa-miR-520h,0.34,-0.26,no change,no change,0.81,inactive
hsa-miR-145*,-0.06,-0.92,no change,no change,0.74,inactive
hsa-miR-671-3p,-3.45,-0.82,reduced viability,no change,0.22,active
hsa-miR-1184,0.62,-0.02,no change,no change,0.86,inactive
hsa-miR-203,0.36,-0.74,no change,no change,0.82,inactive
hsa-miR-18a*,0.02,2.79,no change,no change,0.8,inactive
hsa-miR-367*,0.48,-0.54,no change,no change,0.84,inactive
hsa-miR-373*,1.36,0.59,no change,no change,1,inactive
hsa-miR-1912,-0.52,-0.35,no change,no change,0.72,inactive
